These are yes or no findings as the source states them, for the method shown. In cells and extracts the contact can be indirect. Some entries that bind do so weakly or less than the wild type.
Target: T1, GEF-H1 (ARHGEF2, also known as Lfc in mice) (mouse (endogenous in BMDCs)) (UniProt Q60875)
T1 sequence: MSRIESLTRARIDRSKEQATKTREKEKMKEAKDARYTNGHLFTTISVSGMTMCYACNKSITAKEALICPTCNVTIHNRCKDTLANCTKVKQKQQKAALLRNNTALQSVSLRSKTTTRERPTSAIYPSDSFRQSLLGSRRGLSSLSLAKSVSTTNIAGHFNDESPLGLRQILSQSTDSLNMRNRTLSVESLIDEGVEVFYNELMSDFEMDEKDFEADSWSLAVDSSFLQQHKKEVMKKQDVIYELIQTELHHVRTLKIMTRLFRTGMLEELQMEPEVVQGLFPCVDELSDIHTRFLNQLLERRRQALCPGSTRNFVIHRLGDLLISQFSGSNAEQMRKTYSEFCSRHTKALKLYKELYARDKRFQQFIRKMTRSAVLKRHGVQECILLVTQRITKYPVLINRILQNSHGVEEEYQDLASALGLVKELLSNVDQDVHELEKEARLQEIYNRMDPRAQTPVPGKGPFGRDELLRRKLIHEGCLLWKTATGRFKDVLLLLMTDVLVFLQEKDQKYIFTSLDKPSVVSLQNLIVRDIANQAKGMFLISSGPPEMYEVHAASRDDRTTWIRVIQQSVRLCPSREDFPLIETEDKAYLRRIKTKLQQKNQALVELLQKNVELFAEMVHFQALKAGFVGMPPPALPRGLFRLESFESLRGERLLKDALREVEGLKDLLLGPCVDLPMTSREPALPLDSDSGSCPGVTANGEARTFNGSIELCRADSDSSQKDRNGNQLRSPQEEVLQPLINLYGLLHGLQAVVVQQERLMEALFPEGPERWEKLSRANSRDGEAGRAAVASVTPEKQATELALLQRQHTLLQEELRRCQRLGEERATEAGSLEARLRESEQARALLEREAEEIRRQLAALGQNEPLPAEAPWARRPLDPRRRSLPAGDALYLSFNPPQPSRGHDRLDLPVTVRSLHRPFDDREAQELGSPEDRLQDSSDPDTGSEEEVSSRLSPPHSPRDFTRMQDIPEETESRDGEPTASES
Assay: co-IP; lysates of WT mouse BMDCs, untreated or treated with nocodazole or tubacin; IP with anti-GEF-H1, anti-Kif5b or isotype control, blots for GEF-H1 and Kif5b; lysis buffer 50 mM Hepes pH 7.4, 150 mM NaCl, 1 mM MgCl2, 1% Triton X-100, 10% glycerol

Sequences of proteins named here, by UniProt entry; tags and fusion partners are left off.
UniProt Q61768: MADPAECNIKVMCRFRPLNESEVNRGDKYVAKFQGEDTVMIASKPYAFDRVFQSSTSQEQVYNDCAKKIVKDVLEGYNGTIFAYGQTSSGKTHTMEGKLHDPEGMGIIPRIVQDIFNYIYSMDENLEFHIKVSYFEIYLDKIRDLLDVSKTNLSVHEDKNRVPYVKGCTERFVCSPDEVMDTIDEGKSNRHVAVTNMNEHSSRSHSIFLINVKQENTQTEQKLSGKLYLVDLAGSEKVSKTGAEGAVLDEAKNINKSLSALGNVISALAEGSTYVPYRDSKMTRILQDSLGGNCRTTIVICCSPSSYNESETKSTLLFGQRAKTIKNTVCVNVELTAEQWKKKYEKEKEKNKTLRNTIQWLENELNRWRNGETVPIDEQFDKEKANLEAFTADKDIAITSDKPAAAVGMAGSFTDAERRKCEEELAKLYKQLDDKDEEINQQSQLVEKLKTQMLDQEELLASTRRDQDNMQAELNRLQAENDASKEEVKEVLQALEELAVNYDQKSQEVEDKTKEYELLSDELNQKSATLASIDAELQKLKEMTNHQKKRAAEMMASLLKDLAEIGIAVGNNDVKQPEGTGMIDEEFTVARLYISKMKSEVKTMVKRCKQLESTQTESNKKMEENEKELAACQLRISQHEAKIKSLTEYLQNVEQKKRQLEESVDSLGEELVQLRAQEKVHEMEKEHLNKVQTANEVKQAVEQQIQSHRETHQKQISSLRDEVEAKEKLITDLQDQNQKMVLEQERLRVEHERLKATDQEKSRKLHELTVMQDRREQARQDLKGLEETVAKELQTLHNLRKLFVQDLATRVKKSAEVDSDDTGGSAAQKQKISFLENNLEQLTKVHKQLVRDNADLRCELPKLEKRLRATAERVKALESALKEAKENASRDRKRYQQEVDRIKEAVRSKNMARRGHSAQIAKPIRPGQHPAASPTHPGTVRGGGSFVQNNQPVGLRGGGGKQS

binding: binds
Substance: Kif5b (the heavy chain of kinesin-1) (from UniProt Q61768 1-963)

— article PMC12533555
